# PMC13415819
# Amino acid sequences for entries named in this document (tags omitted). A change or cut given only in a name is not applied to a line headed by its entry. Chains listed by the source or under a name are the forms on record and can include a tag or linker.
# UniProt O95817: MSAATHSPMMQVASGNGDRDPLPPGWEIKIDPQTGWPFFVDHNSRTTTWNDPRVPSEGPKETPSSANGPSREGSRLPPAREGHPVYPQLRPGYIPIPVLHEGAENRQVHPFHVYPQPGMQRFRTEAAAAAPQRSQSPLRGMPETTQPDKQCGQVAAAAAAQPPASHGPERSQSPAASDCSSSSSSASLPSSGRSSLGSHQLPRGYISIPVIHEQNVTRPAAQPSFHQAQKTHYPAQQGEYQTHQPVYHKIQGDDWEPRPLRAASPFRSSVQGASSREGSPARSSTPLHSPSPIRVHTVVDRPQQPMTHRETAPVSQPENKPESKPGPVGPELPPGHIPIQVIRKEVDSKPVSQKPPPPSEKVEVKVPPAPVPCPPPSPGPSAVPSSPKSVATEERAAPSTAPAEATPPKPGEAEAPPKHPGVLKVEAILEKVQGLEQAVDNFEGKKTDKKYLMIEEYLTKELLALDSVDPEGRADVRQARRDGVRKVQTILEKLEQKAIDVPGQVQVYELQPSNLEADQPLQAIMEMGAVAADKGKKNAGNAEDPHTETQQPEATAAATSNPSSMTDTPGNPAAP
# UniProt P51150: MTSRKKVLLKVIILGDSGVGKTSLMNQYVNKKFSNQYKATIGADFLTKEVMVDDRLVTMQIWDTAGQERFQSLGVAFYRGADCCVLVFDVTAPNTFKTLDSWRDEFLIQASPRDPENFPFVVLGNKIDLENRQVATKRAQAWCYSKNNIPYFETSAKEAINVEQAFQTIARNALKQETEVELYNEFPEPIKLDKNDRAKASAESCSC
# UniProt Q8VHX6: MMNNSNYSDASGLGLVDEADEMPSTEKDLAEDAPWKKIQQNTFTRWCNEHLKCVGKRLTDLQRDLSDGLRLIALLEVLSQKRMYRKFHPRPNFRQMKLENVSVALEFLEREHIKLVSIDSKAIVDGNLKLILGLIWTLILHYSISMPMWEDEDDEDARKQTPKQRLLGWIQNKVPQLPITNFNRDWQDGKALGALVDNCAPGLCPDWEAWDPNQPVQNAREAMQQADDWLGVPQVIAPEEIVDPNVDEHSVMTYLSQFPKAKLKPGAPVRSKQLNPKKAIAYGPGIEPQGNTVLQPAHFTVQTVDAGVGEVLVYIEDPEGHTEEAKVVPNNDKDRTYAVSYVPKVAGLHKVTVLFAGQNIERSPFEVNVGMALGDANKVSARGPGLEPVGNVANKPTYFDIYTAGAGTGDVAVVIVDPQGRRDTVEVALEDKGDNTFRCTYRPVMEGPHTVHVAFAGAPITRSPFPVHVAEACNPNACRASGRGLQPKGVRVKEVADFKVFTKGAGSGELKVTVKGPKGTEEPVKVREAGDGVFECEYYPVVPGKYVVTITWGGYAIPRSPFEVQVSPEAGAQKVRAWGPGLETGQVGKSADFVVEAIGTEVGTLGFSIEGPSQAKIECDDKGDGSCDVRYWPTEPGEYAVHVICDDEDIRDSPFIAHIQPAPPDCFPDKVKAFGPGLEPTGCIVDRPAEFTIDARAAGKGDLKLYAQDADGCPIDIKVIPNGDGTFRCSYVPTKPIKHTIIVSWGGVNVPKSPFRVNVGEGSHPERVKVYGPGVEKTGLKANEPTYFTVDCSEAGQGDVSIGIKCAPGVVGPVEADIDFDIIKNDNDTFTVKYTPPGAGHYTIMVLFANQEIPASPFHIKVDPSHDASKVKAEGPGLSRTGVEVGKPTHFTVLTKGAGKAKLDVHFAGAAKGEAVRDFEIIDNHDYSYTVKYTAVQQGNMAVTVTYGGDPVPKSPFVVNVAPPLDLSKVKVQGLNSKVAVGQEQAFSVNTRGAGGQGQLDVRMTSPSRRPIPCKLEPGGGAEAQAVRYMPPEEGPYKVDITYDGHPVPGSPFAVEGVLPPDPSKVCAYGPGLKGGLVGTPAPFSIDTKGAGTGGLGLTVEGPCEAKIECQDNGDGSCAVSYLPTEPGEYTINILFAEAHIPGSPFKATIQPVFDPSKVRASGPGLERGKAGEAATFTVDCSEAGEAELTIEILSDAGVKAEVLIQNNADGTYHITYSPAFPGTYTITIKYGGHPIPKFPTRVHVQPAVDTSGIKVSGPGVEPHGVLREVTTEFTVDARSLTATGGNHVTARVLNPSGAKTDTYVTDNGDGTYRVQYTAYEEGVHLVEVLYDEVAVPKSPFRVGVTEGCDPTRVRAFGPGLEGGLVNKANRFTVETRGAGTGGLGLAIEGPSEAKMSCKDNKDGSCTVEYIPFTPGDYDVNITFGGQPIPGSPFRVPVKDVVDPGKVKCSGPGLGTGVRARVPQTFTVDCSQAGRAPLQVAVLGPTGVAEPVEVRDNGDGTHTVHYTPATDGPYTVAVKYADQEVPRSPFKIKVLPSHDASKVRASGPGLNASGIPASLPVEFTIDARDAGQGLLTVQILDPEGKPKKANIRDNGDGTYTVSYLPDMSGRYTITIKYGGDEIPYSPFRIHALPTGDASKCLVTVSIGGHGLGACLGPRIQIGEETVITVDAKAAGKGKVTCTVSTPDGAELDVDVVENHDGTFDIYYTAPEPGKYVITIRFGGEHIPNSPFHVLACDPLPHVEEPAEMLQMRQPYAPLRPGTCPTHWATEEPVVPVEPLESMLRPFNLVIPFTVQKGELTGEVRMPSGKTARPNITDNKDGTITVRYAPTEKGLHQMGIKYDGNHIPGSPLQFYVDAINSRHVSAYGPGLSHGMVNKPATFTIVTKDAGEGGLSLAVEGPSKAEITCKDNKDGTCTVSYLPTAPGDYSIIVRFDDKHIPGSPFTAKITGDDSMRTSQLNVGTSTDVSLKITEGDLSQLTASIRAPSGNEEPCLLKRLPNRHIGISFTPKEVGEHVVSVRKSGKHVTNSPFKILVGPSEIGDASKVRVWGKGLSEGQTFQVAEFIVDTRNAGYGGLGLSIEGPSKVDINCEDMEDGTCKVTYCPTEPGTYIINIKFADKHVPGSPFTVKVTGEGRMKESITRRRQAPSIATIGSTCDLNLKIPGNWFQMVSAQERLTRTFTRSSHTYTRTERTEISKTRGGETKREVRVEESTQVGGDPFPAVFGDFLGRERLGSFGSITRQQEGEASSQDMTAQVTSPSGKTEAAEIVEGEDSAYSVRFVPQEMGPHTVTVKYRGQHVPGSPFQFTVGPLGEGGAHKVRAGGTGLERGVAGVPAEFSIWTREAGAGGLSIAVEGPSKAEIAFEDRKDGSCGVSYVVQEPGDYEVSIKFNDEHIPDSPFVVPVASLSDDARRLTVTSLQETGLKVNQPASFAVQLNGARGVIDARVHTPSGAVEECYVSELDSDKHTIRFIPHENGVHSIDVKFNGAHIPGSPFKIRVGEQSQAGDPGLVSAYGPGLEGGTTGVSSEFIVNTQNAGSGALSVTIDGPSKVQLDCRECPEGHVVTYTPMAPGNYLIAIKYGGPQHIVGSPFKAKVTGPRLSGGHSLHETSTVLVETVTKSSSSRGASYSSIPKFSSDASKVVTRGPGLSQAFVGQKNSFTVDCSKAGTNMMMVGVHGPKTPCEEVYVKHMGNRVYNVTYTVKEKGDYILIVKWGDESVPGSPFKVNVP
# XIRP1 (O70373, form named): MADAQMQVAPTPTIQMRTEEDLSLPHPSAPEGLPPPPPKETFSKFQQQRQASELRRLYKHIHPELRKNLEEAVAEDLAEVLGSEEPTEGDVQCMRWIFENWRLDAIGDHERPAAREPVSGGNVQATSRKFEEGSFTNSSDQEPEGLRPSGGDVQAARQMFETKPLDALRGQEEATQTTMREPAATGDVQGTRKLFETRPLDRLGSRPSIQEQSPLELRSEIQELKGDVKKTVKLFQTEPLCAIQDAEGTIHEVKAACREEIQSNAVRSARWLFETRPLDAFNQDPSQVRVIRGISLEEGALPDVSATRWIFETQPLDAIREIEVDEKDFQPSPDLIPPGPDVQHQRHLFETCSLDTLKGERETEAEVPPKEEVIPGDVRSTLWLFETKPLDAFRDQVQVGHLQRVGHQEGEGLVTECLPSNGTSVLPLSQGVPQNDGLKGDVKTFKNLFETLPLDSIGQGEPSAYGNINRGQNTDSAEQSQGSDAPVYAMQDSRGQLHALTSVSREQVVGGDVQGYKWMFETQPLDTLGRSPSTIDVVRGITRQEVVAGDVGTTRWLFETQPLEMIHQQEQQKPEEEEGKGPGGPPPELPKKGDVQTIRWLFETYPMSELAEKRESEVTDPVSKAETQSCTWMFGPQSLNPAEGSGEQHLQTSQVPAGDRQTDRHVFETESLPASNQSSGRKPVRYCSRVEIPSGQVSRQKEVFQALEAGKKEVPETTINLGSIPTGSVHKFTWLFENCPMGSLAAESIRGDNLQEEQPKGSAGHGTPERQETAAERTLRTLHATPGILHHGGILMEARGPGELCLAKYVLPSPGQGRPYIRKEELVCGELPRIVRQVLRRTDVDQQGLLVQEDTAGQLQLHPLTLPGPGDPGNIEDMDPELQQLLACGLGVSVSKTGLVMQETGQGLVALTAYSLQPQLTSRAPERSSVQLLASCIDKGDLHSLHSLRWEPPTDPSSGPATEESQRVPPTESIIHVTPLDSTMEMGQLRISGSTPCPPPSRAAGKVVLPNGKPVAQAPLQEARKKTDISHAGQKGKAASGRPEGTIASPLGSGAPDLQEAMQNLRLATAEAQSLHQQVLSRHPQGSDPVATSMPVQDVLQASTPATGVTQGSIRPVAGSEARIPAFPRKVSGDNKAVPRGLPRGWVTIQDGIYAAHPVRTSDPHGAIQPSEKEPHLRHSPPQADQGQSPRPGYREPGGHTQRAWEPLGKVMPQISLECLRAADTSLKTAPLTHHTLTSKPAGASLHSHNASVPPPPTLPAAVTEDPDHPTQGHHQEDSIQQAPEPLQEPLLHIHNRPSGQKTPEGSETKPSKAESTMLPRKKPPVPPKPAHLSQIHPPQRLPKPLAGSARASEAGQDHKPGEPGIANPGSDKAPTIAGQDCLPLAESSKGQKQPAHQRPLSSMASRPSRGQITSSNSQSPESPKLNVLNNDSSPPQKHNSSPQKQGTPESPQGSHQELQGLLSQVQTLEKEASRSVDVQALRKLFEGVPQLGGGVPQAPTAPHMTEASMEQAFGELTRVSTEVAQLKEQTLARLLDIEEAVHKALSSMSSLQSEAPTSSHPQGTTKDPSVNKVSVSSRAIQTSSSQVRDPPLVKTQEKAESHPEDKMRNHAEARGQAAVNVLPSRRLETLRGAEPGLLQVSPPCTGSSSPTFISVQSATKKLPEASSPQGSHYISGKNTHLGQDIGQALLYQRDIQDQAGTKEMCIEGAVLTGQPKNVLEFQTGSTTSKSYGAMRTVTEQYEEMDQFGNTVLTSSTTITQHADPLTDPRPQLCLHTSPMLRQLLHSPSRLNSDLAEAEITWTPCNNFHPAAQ
# Results are given in words; binding and its absence hold for the method and conditions named. Binding seen in cells or lysates may run through a third protein. These calls come from enrichment with a bait or labelling near it, and not all partners need be listed.
# Biological target: TurboID-BAG3 (human) (UniProt O95817)
# Assay: proximity labelling; C2C12 myotubes stably expressing TurboID-BAG3, differentiated 7 days, 50 µM biotin for 1.5 h at 37 °C; biotinylated proteins purified on Streptavidin-Sepharose and identified by mass spectrometry (DIA); compared with control samples
row,Molecule,binding
1,RAB7A (from UniProt P51150 1-207),binds
2,"SYNPO (protein, UniProt Q8CC35 1-929) MLGAHFPPPPLGASEGRAAPCTFQIPDGSYRCLALEAEESSSEDGLQGEVRLVDLEEEGTSQSRANHGTPPLSRAPAIIQPSSCHREARGGFQRSDRPSHDWDVVQARKVMTASGSSSPVPRVAQKPALGRSTSFTENDLKEAKARSQQIAAQLTTPPSSNSRGVQLFNRRRQRVNEFTLESRGQRSPKLNQEALQTGRPLSPIGHAPGPSVKPTSPSKPGSPKHPSPQSPSRGVAGHIMEGYSEEASLLRHLEKVASEEEEVPLVVYLKENAALLTANGLHLSQSRETQQSSPNPPDTEVPSPAADINQNPSSPNATLTTLASSSHHSQPTADINQNPPAAITPVPQNSSQAQCSPNGTLDSKPGTLCADDGQSPVPAEEVRSSILLIDKVSAPPSAASTFSREATPLSSSGPPAADLMSSSLLIDMQPSTLVAPAEQEVPGHVAVTTPTKVYSEVHLTLAKPASVVNRTARPFGIQSPGTSQIEQSPMMGRRQFGEKAWAPPASSMADRSPQPQRHIMSRSPMVERRLLGQRSPVLERRPLGNFTPPPTYAETLSTAPVASRVRSPPSYSTLYPSSDPKPSHLKGQVAPANKTGILEESMARRGSRKSMFTFVEKPKVTPNPDLLDLVQTADEKRRQRDHGEVGMEEEPFALGAEASNFQQEPIARDRASPAAAEEAVPEWASCLKSPRIQAKPKPKPNQNLSEASGKGAELYARRQSRMEKYVIESSGHAELARCPSPTMSLPSSWKYTTNAPGGFRVASLSPARTPPASLYHGYLPENGVLRPEPTKQQPYQMRPSLYALSPVKEPAKASSRATSSRTPSRTVSPRAASPAKPSSLDLVPNLPRAGLPPSPALPRPSRSSPGLYTAPVQDSLQPTAVSPTYSSDISPVSPSRAWSPRAKQAPRPSFSTRNAGIEAQVWKPSFCFK",binds
3,"PDLIM3 (endogenous, C2C12) (protein, UniProt O70209 1-316) MPQNVVLPGPAPWGFRLSGGIDFNQPLVITRITPGSKAAAANLCPGDVILAIDGFGTESMTHADAQDRIKAASYQLCLKIDRAETRLWSPQVSEDGKAHPFKINLEAEPQEFKPIGTAHNRRAQPFVAAANIDDKRQVVSASYNSPIGLYSTSNIQDALHGQLRGLIPGSLQNEPTASVPPQSDVYRMLHDNRDDPAAPRQSGSFRVLQDLVNDGPDDRPAGTRSVRAPVTKVHGGAGSAQRMPLCDKCGSGIVGAVVKARDKYRHPECFVCADCNLNLKQKGYFFVEGELYCETHARARTRPPEGYDTVTLYPKA",binds
4,"synaptopodin-2/myopodin (SYNPO2) (protein, UniProt Q91YE8 1-1087) MGTGDFICISMTGGAPWGFRLQGGKEEQQPLQVAKIRSQSKASGSGLREGDEVVSINGNPCADLTYPEVIKLMEGITDSLHLLVKRPSSGTSETLDSESETTNHQHLTHEGPMESTTLQIQQATETQSEDFFLAPVQTKVPLTEDQSNAWGYAECPKEEQAPPMLGSQEGHLVEEVILRQKAEAGQPGHVVELQLSLSKERHQCTSGPIVTLQGNDKSTSPDPDWSSQLERTVHINSIPAPEKADTSLTSSTSSGRELRVIQGRDPGGAGLPQVEVILDCSDRLKAEECRLQTGRGCVASPVEGGRSEAPPSLVSFAVSSEGTEHGEDQRSGKDQSRPHKHRARHARLRRSESLSEKQVKEAKSKCKSIALLLTDAPNPNSKGVLMFKKRRRRARKYTLVSYGTGELEREEEEEEDQEAGDKDEISEVAFLGTSESEVDEELLSDVDDNTQVVNFDWDSGLVDIEKRLNRGDKMEMLPDTTGKGALMFAKRRERMEQFTAQNEEEKTGGMAGGGPDALQTDGLRTMTSYQRKEESVRMQSSVSESSFQMGRSLASVPQQNGFSGVSETAGAQRMFPMNRTAKPFLGSMNQPAAPFSPTRSVTSPISDFPAPPPYSAVSPPPEAFSRGVSSPVAGPAQPPPWPQPAPWSQPAFYDSSEQIASRDERIAVPAKRTGILQEAKRRGTTKPMFTFKETKVSPNPELLSLLQNAEGKRGTGGDSGPEEDYLSLGAEACNFMQSSAKQKTPPPVAPKPAVKSPSSSQPVAPVSPVWSPGVAPAQRPAFSTSNPPNPPQVTAVSSIKIAQPAAPPARPASALNLAGPFKGPQAVVVSHNYTPKPSAPTPLVNAAPAGAGGPSNELPGMSGKGAQLFAKRQSRMEKYVVDSDTVQAHTVRAQSPTPSLPASWKYSSNVRAPPPVAYNPIHSPSYPLAAIKSQPPGAQASKTSKKKGKKPLNTLDVMKHQPYQLNASLFTFQPPDSKDGLPQKSTVKVSSAPAMKQALPPRQANVGSPTNAQASSVYSVPAYTSQPNFFAAEATSPVSASPVPVSVPTSPKQESTSTSYFVAPRPKFSAKKSGVTVQVWKPSVVEE",binds

# Now from value to molecule:
row,binding,Molecule
1,binds,Filamin C (FLNC) (from UniProt Q8VHX6 1-2726)
2,binds,XIRP1 (from UniProt O70373 1-1813)
3,binds,XIRP2 (from UniProt Q4U4S6 1-3784)
